Laboratory results: article PMC12040169 (PLOS Biology, 2025)
The other results are listed elsewhere or left out.

Test system: T1, CTL2-GFP (C. trachomatis L2/434/Bu, GFP-expressing)
T1 construct: L2/434/Bu, GFP-expressing
Set-up: species or system HeLa; Intracellular C. trachomatis growth in HeLa cells, bulk GFP fluorescence relative to DMSO
Conditions: bulk GFP, single well; 28.5 h, 10 µM; inhibitor

Row | SMILES | % of control remaining [%]
1 | Cc1cccc(C)c1NC(=S)N1CCC2(CC1)OCCO2 [CBK016408] | 83.7337
2 | O=C(c1ccc(-c2nccnc2NCc2ccco2)cc1)N1CCOCC1 [CBK036920] | 186.298
3 | Cc1nc2ccccc2c(=O)n1CC(=O)NCc1ccccc1 [CBK072830] | 104.375
4 | O=C(CC1Nc2cccc3cccc(c23)NC1=O)Nc1ccccc1 (stereo not drawn) [CBK268035] | 117.925
5 | Cc1cnoc1-c1cc(Cl)cc(Cl)c1O [CBK015870] | 114.467
6 | Fc1cc2c3c(c1)c1c(n3CCC2)CCNCC1 [CBK018406C] | 108.269
7 | Cc1noc(C)c1CC(=O)N1[C@H]2CCCCCN(C)[C@@]2(C)C[C@H]1c1ccccc1 [CBK286094] | 111.381
8 | COc1ccc(CN(C)C(=O)CCc2c(C)nc3c(cnn3C(C)C)c2C)cc1 [CBK297087] | 174.591
9 | CC(=O)N[C@H](C)Cn1nnc2ccccc21 [CBK282246] | 112.318
10 | O=C(Cc1cccnc1)N1CCC(c2cccc(Cc3ccc(C(F)(F)F)cc3)n2)CC1 [CBK286223] | 92.8714
11 | O=C(CSCc1c(Cl)cccc1Cl)NN1C(=O)c2ccccc2C1=O [CBK267800] | 105.634
12 | O=c1[nH]c2ccc(NC(=S)NCc3ccccc3)cc2[nH]1 [CBK296099] | 146.66
13 | CC(C)(C)S(=O)(=O)c1ccc(C(=O)O)s1 [CBK260880] | 108.735
14 | O=S(=O)(c1ccc(Cl)c(Cl)c1)N1CCOCC1 [CBK043794] | 112.148
15 | CC(C)(C)C(=O)N1CCC(n2nc(-c3ccco3)ccc2=O)CC1 [CBK282341] | 138.748
16 | CN(C)c1cccc(Nc2ccc(-c3ccco3)cn2)c1 [CBK036885] | 207.429
17 | Cc1cc(C)nc(NC(=N)NCCc2c[nH]c3ccccc23)n1 [CBK266321] | 46.5163
18 | COCc1nc2n(n1)CC(NC1CCc3ccccc3CC1)CC2 (stereo not drawn) [CBK304737] | 112.32
19 | CC(Oc1ccc(F)cc1)C(=O)NCCN1CCOCC1 (stereo not drawn) [CBK265508] | 130.959
20 | Cc1oc2c(c1C(=O)NC(C)c1ccccn1)CCCC2 (stereo not drawn) [CBK281825] | 130.095
21 | COc1ccc(-c2cc(NCc3cc(OC)c(OC)c(OC)c3)ncn2)cc1 [CBK091184] | 136.398
22 | Nc1ncc(-c2ccsc2)nc1-c1ccc(O)cc1 [CBK115631] | 104.693
23 | CSc1nnc(-c2ccccc2O)n1CCc1ccccc1 [CBK076668] | 116.826
24 | COc1ccc(-c2cc3cccnc3n2CC(=O)NC(C)(C)C)cc1 [CBK285381] | 88.873
25 | CC(C)(N)CC(=O)N1CCC(Cn2cncn2)(C2CCCCC2)CC1 [CBK136822] | 77.9162
26 | CC(=O)Nc1cccc(C(=O)NCC(c2cccs2)N(C)C)c1 (stereo not drawn) [CBK304583] | 116.461

Row | SMILES | % of control remaining [%]
27 | COc1ccc(/C=N/NC(=O)Cc2cccn2C)cc1[N+](=O)[O-] [CBK262789] | 116.918
28 | Cc1cc(C(=O)N2CCC(N3C(=O)OCC3(C)C)CC2)n(C(C)(C)C)n1 [CBK044233] | 130.513
29 | CN1CCN(Cc2nc3c(c(=O)n(C)c(=O)n3C)n2CCc2ccccc2)CC1 [CBK269507] | 112.309
30 | CC(C)c1cc(C(=O)N2CCCCCC2c2ccn(C)n2)no1 (stereo not drawn) [CBK283048] | 123.919
31 | FC(F)(F)c1ccc(CN2CCN(c3nccnc3OCc3cccnc3)CC2)cc1 [CBK083133T] | 83.9503
32 | COc1ccc(-c2ccc3n(c2=O)C[C@H]2C[C@@H]3CN(C(=O)c3ccncc3)C2)cc1 [CBK289178] | 115.895
33 | CC(NC(=O)Cc1cccs1)c1nc2cccnc2n1C(C)C (stereo not drawn) [CBK283828] | 142.273
34 | CCOC(=O)c1cn(CC)c2cc(F)c(OCC)cc2c1=O [CBK307139] | 155.603
35 | CCN(CC(=O)N1CCN(C)CC1)S(=O)(=O)c1ccc(OC)cc1 [CBK269374] | 144.737
36 | CN(C)CC(=O)NC(Cc1cccs1)c1nccs1 (stereo not drawn) [CBK285061] | 135.237
37 | COc1cc(C)c(Nc2cc(-c3ccc(F)c(F)c3)ncn2)cc1OC [CBK090787] | 112.746
38 | Cc1cc(N2CCCC2)c(F)cc1CN1CCC(CO)C1 (stereo not drawn) [CBK282916] | 107.098
39 | O=C(c1ccc([N+](=O)[O-])cc1Cl)N1CCN(Cc2ccccc2)CC1 [CBK261778] | 90.4227
40 | COc1ccc(C(=O)C2=C(O)C(=O)N(CCN(C)C)C2c2cccc([N+](=O)[O-])c2)cc1C (stereo not drawn) [CBK264875] | 125.99
41 | COc1c(C)cnc(COC(=O)N2C[C@@H](C)O[C@@H](C)C2)c1C [CBK200143] | 93.1451
42 | COc1ccc(Cl)cc1-n1c(-c2ccc3ccccc3n2)n[nH]c1=S [CBK288382] | 148.737
43 | Fc1ccc(-c2n[nH]c(=S)n2CCCN2CCOCC2)cc1 [CBK267127] | 166.519
44 | CCOc1ccc(-c2ccnc(NCC3CCCOC3)n2)cc1C(=O)O (stereo not drawn) [CBK307694] | 135.212
45 | O=C(COc1cccnc1)N1CCCC2(CCN(C(=O)Cc3c[nH]c4ccccc34)C2)C1 (stereo not drawn) [CBK131608] | 95.4719
46 | CCN1CCCC1CN(Cc1ccncc1)Cc1ccoc1 (stereo not drawn) [CBK283171] | 109.616
47 | CC/C(=C\c1sc2ccc3ccccc3c2[n+]1CCCS(=O)[O-])SC [CBK264941] | 112.393
48 | O=C(CSc1ccc2nnc(-c3cccc(F)c3)n2n1)Nc1nccs1 [CBK287522] | 149.736
49 | CCC(c1nc2ccccc2c(=O)n1CCCn1ccnc1)N1C(=O)c2ccccc2C1=O (stereo not drawn) [CBK268560] | 107.359
50 | CC(=O)[C@H]1CC[C@H]2[C@@H]3CC[C@H]4CC5(CC[C@]4(C)[C@H]3CC[C@]12C)N=C1C=C(C(C)(C)C)ON1C1C=CCC15 (stereo partly drawn) [CBK303246] | 51.3466
51 | CN(C)c1nc2c(c(=O)[nH]c(=O)n2C)n1Cc1cccc2ccccc12 [CBK140560] | 143.967
52 | Cc1ccc(Cl)cc1N1CCN(CC(O)COCc2ccc3c(c2)OCO3)CC1 (stereo not drawn) [CBK278308C] | 86.2653

Quoted from the entries so far, two compounds:
Row | SMILES | % of control remaining [%]
40 | COc1ccc(C(=O)C2=C(O)C(=O)N(CCN(C)C)C2c2cccc([N+](=O)[O-])c2)cc1C (stereo not drawn) [CBK264875] | 125.99
41 | COc1c(C)cnc(COC(=O)N2C[C@@H](C)O[C@@H](C)C2)c1C [CBK200143] | 93.1451

More compounds:

Row | SMILES | % of control remaining [%]
53 | CN(Cc1c(C2CCNCC2)[nH]c2ncccc12)C1CCCCC1 [CBK285079] | 129.949
54 | CCNC(=O)N1Cc2nc[nH]c2C[C@H]1C(=O)NCc1ccc(C#N)cc1 [CBK288975] | 142.073
55 | O=S(=O)(NCc1ccccc1)c1ccc(Cl)cc1 [CBK086159] | 104.139
56 | Cc1ccc(-c2nn(CCC#N)cc2C(=O)N2CCCCC2)cc1C [CBK306131] | 155.533
57 | CCOc1cccc(-c2cn3ccnc3c(N3CCN(CCO)CC3)n2)c1 [CBK066612] | 190.327
58 | O=C(NCCc1c[nH]c2ccccc12)c1ccc(-c2ccco2)nc1N1CCN(C(=O)c2ccco2)CC1 [CBK076217] | 100
59 | CC(=O)N1CCC[C@H]2NC(=O)CNC(=O)C3(C/C=C/C[C@H]21)CCN(c1ncccn1)CC3 [CBK292042] | 93.5237
60 | Cn1c(SCC(=O)Nc2ccc(F)cc2)nnc1-c1cccnc1 [CBK267035] | 159.806
61 | O=C(NCc1ccccn1)c1ncoc1-c1ccc(F)cc1 [CBK282352] | 112.351
62 | CC(C)N(Cc1nc(-c2ccc(Cl)cc2)no1)C(=O)COc1ccc(Br)cc1Cl [CBK267126] | 108.557
63 | CCOc1cc(/C=c2/sc3nc(=O)c(Cc4ccccc4)nn3c2=O)ccc1OC(C)=O [CBK077455] | 100
64 | O=C(COc1ccccc1)Nc1cccc(N2CCNCC2)c1 [CBK028271T] | 116.227
65 | CCN(CC(=O)Nc1ccc2c(c1)OCCO2)S(=O)(=O)c1ccsc1C(=O)O [CBK296717] | 128.461
66 | Cc1cc(C)n(CC(C)C(=O)Nc2cccnc2)n1 (stereo not drawn) [CBK307573] | 132.233
67 | Cc1cc(CN2CCN(S(=O)(=O)c3ccc(C(=O)c4ccccc4)cc3)CC2)cc(C)c1O [CBK062933] | 105.69
68 | COc1ccccc1/C=C/CN(C)CCN(C)C [CBK261888] | 100
69 | C#CCNC(=O)[C@@H]1Cc2cn(Cc3c(C)noc3C)c3cccc(c23)[C@H](CC(C)C)N1 [CBK289425] | 159.997
70 | Fc1ccccc1COc1ccccc1CNCCN1CCOCC1 [CBK278222C] | 160.291
71 | Nc1nc(CSc2nnc(-c3ccco3)n2-c2ccccc2)cs1 [CBK269693] | 92.1515
72 | COc1cc(/C=C/C(=O)NCc2ccc(C(=O)O)cc2)ccc1O [CBK286728] | 132.934
73 | CC(=O)Nc1ccc(S(=O)(=O)N2CCN(S(=O)(=O)c3ccc(C)cc3)CC2)cc1 [CBK264276] | 134.467
74 | O=S(=O)(Nc1ccc(N2CCNCC2)c2ccccc12)c1ccc(Br)cc1F [CBK200014C] | 72.7626
75 | Cc1ccc(C(=O)O)cc1NC(=O)c1cccc(C(=O)Nc2cc(C(=O)O)ccc2C)c1 [CBK262797] | 100
76 | CSc1ncc(Cl)c(C(=O)Nc2nc(-c3ccc(S(=O)(=O)N4CCOCC4)cc3)cs2)n1 [CBK269064] | 116.175
77 | Cc1ccc(C=C(c2ccccc2)c2nc3sc(C(=O)O)c(C)c3c(=O)[nH]2)s1 [CBK295638] | 145.121
78 | CCC(C(=O)O)c1ccc(-n2sc3ccccc3c2=O)cc1 (stereo not drawn) [CBK011773] | 85.147

Part of the list above in order of molar mass, ascending.
Row | SMILES | % of control remaining [%]
4 | O=C(CC1Nc2cccc3cccc(c23)NC1=O)Nc1ccccc1 (stereo not drawn) [CBK268035] | 117.925
7 | Cc1noc(C)c1CC(=O)N1[C@H]2CCCCCN(C)[C@@]2(C)C[C@H]1c1ccccc1 [CBK286094] | 111.381
74 | O=S(=O)(Nc1ccc(N2CCNCC2)c2ccccc12)c1ccc(Br)cc1F [CBK200014C] | 72.7626
